One molecule from paper PMC6465247 can be followed below.

For assay [1], the target named is T1, PDS5C, BiFC fusion (Arabidopsis thaliana) (UniProt Q8GUP3).
T1 sequence: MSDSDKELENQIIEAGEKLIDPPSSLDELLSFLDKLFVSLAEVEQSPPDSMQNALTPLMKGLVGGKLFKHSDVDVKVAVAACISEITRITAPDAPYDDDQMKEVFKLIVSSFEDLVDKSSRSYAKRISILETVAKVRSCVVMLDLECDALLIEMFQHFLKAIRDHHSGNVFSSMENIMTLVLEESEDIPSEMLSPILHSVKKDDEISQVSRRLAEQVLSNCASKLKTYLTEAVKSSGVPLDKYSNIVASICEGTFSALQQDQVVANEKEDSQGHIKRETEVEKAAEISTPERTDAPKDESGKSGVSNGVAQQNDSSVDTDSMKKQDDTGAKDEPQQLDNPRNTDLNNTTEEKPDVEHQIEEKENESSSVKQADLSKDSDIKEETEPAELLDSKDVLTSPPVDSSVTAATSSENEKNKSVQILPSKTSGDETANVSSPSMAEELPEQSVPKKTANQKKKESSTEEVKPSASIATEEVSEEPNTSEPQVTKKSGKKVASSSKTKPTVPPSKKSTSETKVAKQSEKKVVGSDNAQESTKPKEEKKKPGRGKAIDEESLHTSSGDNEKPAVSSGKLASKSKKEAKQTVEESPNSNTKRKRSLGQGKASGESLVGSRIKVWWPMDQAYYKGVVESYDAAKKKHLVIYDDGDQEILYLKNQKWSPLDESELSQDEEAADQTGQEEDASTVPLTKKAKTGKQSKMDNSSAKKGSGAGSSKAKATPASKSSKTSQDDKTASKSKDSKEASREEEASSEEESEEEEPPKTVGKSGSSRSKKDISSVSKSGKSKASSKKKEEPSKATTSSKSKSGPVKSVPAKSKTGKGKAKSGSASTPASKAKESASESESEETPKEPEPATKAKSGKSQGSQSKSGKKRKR
The experiment in a line: split reporter; BiFC and ratiometric BiFC (pBiFC-2in1-NN, YFP against RFP as reference) in tobacco leaves after Agrobacterium infiltration; imaged 2 days after infiltration.

The target of assay [2] is T2, PDS5B, BiFC fusion (Arabidopsis thaliana) (UniProt F4I735).
T2 sequence: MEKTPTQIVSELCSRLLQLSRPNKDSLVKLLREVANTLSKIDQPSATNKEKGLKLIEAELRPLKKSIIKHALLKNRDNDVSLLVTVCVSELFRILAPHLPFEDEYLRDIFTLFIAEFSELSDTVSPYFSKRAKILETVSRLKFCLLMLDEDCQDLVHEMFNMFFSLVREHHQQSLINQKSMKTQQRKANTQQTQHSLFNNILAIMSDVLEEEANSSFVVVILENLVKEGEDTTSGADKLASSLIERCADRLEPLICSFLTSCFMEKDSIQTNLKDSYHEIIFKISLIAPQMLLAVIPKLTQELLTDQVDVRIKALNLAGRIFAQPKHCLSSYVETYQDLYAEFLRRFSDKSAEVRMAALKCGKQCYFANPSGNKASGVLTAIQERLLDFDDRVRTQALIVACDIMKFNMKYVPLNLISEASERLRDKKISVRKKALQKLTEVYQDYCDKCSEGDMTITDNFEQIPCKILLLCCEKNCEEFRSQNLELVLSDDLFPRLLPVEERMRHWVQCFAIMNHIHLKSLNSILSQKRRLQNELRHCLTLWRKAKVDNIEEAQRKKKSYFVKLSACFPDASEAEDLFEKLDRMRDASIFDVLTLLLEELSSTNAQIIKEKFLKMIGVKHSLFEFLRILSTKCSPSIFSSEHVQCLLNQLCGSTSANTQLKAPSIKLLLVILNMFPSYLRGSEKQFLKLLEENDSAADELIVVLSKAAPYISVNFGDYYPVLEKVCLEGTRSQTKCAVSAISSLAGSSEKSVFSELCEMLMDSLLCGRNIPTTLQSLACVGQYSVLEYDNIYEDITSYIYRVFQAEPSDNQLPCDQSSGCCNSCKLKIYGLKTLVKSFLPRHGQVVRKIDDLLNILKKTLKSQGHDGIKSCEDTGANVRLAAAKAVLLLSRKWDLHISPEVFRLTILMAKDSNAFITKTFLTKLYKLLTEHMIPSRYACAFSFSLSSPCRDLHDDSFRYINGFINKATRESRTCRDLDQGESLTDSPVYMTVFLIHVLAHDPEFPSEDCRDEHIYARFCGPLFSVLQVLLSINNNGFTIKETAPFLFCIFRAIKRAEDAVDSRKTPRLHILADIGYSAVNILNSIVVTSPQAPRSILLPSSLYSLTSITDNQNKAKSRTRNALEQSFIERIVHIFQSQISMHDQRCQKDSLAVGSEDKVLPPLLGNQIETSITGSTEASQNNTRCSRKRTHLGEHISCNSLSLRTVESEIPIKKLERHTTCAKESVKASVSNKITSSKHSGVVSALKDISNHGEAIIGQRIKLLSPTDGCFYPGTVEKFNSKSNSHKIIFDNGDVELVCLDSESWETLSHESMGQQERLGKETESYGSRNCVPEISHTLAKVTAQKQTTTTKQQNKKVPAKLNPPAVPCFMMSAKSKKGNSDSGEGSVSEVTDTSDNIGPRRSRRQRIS
The description is as above.

No constants are given. Whether binding was seen depends on the method and setting. Binding seen in cells or lysates may run through a third protein. Some entries that bind do so weakly or less than the wild type. Where a sequence is shown, tags or fusion partners need not be part of it.

B1: SWI1, BiFC fusion (protein, UniProt Q9FGN8 1-639)
chain: MSSTMFVKRNPIRETTAGKISSPSSPTLNVAVAHIRAGSYYEIDASILPQRSPENLKSIRVVMVSKITASDVSLRYPSMFSLRSHFDYSRMNRNKPMKKRSGGGLLPVFDESHVMASELAGDLLYRRIAPHELSMNRNSWGFWVSSSSRRNKFPRREVVSQPAYNTRLCRAASPEGKCSSELKSGGMIKWGRRLRVQYQSRHIDTRKNKEGEESSRVKDEVYKEEEMEKEEDDDDGNEIGGTKQEAKEITNGNRKRKLIESSTERLAQKAKVYDQKKETQIVVYKRKSERKFIDRWSVERYKLAERNMLKVMKEKNAVFGNSILRPELRSEARKLIGDTGLLDHLLKHMAGKVAPGGQDRFMRKHNADGAMEYWLESSDLIHIRKEAGVKDPYWTPPPGWKLGDNPSQDPVCAGEIRDIREELASLKRELKKLASKKEEEELVIMTTPNSCVTSQNDNLMTPAKEIYADLLKKKYKIEDQLVIIGETLRKMEEDMGWLKKTVDENYPKKPDSTETPLLLEDSPPIQTLEGEVKVVNKGNQITESPQNREKGRKHDQQERSPLSLISNTGFRICRPVGMFAWPQLPALAAATDTNASSPSHRQAYPSPFPVKPLAAKRPLGLTFPFTIIPEEAPKNLFNV
Take B1: the binding result is recorded as “binds” in assay [1] and “binds weakly” in assay [2].
